Results from the supplement of paper PMC10849652.
The other results are listed elsewhere or left out.

Chains of the proteins cited; added tags and fusions are not shown. Lines headed by an entry give the natural chain unless they say otherwise; changes in a name come on top.
UniProt P0DJ93: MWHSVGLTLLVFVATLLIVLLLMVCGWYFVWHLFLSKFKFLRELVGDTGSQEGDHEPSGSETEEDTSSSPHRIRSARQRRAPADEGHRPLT
UniProt Q9NXE4: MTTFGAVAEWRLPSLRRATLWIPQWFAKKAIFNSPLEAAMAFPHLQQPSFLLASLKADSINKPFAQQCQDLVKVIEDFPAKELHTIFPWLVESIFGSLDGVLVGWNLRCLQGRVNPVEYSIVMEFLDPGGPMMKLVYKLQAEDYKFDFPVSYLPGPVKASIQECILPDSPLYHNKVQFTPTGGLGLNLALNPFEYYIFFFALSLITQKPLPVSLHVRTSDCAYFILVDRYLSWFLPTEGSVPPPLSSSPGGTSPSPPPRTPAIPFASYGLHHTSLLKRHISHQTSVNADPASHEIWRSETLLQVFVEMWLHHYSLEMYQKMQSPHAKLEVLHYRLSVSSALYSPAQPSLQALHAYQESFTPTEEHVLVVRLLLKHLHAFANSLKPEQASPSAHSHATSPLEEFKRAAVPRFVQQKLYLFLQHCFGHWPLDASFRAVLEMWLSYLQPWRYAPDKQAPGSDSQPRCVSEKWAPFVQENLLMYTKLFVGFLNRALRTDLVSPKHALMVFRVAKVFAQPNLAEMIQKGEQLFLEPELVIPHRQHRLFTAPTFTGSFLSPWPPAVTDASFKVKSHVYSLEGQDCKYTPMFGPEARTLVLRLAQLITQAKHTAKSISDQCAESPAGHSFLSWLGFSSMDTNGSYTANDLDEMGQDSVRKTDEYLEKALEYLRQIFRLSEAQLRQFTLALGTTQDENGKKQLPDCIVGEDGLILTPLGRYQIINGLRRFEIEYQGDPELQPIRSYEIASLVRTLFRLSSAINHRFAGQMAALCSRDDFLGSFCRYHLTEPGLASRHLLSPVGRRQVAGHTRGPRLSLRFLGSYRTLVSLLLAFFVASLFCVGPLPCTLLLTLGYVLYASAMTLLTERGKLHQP
UniProt O60504: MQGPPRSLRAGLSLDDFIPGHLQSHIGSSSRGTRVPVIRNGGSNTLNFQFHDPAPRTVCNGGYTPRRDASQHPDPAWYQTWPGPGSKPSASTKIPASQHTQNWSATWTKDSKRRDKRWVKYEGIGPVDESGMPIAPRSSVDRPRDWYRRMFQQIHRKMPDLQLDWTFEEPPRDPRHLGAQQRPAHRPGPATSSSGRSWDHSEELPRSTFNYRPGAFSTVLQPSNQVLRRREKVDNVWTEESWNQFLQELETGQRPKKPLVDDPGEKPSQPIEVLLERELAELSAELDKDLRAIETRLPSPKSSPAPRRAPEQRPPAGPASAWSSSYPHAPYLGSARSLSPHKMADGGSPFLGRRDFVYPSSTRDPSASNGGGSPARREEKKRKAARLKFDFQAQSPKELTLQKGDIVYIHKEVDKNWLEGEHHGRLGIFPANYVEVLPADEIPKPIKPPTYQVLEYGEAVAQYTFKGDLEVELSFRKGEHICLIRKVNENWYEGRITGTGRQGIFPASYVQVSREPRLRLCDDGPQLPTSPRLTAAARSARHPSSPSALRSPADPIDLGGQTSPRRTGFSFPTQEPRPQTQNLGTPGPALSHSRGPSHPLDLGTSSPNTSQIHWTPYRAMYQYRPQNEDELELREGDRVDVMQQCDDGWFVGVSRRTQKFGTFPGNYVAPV
UniProt Q92484: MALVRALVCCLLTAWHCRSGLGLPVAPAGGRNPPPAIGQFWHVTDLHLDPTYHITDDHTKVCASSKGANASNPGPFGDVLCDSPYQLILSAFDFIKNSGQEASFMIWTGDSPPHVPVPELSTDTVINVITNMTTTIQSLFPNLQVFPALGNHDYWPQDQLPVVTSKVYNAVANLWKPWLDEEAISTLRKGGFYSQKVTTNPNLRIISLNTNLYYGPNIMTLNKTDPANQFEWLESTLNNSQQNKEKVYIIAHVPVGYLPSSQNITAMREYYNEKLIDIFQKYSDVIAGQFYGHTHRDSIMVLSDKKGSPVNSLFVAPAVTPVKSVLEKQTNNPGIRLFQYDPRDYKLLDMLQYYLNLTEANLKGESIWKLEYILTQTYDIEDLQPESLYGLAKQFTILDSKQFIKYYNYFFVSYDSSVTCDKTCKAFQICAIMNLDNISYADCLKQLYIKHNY
UniProt P58511: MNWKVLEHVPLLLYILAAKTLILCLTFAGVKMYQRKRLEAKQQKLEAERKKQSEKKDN
UniProt O75971: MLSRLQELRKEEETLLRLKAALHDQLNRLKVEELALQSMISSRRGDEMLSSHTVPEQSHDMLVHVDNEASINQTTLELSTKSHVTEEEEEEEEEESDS
UniProt Q9NZC9: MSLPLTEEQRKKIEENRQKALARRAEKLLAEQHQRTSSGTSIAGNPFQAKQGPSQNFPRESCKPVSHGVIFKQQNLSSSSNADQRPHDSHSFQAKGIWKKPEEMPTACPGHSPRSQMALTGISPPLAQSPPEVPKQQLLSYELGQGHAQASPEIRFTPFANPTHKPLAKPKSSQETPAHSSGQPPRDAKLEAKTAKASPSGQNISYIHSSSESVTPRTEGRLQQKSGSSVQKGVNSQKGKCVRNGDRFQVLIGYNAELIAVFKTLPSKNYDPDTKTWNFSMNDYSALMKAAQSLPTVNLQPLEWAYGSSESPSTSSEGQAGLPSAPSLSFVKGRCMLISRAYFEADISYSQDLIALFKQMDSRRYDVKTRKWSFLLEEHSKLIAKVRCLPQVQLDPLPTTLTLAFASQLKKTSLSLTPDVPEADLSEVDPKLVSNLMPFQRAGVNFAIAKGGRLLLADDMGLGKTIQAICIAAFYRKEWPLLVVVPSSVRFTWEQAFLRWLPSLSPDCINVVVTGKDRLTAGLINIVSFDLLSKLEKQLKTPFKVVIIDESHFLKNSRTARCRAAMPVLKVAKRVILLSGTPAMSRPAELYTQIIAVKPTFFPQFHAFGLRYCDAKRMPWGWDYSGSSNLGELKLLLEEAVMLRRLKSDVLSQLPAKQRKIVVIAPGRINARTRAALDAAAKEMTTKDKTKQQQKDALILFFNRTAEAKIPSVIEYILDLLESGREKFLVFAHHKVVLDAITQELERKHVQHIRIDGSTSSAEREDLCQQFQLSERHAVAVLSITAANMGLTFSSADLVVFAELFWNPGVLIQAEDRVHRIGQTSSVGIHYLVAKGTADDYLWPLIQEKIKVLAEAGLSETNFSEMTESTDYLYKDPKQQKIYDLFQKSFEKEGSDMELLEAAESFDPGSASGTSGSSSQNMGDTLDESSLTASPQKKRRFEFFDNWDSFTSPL
UniProt O95219: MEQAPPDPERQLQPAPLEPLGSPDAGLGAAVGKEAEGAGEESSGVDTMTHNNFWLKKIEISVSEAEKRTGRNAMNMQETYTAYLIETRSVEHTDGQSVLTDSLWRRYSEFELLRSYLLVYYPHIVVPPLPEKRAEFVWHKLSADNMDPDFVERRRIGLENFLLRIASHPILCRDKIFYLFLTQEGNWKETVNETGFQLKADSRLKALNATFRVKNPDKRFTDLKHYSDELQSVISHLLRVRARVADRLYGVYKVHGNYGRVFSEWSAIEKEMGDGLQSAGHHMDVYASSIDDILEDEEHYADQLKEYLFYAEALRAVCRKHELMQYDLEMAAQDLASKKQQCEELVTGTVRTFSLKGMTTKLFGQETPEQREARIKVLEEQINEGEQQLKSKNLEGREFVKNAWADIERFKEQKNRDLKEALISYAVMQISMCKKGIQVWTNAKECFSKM
UniProt Q02446, whole entry, looked up: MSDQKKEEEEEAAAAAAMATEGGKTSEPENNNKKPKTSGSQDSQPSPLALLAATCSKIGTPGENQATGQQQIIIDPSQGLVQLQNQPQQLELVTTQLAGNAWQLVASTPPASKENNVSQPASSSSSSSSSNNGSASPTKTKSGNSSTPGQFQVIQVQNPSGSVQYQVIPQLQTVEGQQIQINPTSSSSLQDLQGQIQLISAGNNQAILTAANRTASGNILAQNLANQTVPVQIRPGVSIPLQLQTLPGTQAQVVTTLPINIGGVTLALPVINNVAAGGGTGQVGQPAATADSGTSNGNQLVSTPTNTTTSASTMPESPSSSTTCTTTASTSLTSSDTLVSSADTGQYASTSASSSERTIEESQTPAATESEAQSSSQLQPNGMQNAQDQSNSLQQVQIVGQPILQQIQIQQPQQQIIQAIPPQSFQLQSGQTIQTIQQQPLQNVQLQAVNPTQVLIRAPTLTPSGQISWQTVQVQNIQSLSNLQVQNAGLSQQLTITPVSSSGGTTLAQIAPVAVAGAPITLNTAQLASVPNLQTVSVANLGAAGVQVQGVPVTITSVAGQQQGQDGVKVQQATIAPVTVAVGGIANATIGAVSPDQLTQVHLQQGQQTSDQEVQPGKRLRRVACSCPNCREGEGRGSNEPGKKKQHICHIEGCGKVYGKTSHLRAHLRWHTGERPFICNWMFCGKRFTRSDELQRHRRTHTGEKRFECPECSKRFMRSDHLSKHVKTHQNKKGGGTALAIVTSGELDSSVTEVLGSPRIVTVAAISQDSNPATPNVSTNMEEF
UniProt P02814: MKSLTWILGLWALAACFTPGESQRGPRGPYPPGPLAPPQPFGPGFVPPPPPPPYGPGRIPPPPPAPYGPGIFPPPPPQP
UniProt Q86UD5: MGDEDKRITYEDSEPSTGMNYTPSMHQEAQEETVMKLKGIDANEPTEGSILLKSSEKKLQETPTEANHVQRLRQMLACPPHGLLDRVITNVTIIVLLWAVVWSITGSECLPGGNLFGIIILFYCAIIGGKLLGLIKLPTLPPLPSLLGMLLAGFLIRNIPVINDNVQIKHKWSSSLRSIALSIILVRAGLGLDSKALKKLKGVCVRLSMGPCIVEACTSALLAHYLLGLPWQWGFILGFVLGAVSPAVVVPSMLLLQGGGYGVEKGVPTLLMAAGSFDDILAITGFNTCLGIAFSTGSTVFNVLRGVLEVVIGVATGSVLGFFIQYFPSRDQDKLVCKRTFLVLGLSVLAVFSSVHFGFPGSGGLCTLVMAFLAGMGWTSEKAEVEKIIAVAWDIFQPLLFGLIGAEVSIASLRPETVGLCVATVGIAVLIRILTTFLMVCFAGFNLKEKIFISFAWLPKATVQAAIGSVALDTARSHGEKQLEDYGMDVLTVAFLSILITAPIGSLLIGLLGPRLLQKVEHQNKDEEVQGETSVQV
UniProt Q8TAD8: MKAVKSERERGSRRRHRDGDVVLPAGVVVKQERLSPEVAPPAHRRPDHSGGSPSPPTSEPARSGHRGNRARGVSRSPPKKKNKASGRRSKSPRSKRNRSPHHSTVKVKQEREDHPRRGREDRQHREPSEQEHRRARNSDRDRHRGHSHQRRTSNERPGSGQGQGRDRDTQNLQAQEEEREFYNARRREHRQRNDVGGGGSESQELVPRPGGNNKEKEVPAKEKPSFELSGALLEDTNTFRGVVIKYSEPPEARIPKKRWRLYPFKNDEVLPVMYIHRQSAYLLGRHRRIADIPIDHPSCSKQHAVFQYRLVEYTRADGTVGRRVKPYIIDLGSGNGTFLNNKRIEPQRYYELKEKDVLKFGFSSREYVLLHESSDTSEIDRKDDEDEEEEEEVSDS
UniProt P84022, whole entry, looked up: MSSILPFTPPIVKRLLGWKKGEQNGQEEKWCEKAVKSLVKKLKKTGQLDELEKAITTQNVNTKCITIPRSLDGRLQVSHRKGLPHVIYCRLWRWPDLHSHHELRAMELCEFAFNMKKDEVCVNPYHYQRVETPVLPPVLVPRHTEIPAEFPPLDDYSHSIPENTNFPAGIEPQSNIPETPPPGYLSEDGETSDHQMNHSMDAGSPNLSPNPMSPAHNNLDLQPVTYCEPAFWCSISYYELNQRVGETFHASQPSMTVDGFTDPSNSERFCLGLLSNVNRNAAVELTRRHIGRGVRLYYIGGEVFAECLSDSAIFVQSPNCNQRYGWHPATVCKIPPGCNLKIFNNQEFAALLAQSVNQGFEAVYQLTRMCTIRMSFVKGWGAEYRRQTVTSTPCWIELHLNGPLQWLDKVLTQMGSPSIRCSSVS

Key:
Assay in all cases: log2 fold change, soluble protein after heating vs DMSO (PISA); higher = thermal stabilisation; K562 cells, 10 uM, 30 min; active = over 0.2 and 3.5 SD of the protein, either way, in both replicates (recomputed)
[1] = compound: CS(=O)(=O)c1ccc(-c2cnc(N)c(C(=O)Nc3ccccc3)n2)cc1
Summary of the method: (§1)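 K562 cells (2×10^6 cells/mL) were treated with 10 μM compound for 30 min, and aliquots were heated for 3 min over 48°C-58°C. Pooled aliquots were extracted in PBS with 0.5% NP-40 at 4°C, and the supernatant after 21,000xg for 90 min was measured by TMTpro 16plex LC-MS/MS with channel sums equalised. Reported thermal stability, relative to control samples and from duplicates, is a log2 fold change.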

ispinesib = compound: Cc1ccc(C(=O)N(CCCN)[C@@H](c2nc3cc(Cl)ccc3c(=O)n2Cc2ccccc2)C(C)C)cc1 [ispinesib]
Summary of the method: as §1

bafetinib = compound: Cc1ccc(NC(=O)c2ccc(CN3CC[C@H](N(C)C)C3)c(C(F)(F)F)c2)cc1Nc1nccc(-c2cncnc2)n1 [bafetinib]
Summary of the method: as §1

nilotinib = compound: Cc1cn(-c2cc(NC(=O)c3ccc(C)c(Nc4nccc(-c5cccnc5)n4)c3)cc(C(F)(F)F)c2)cn1 [nilotinib]
Summary of the method: as §1

[2] = compound: Cc1nc(Nc2n[nH]c3c2CN(C(=O)N[C@H](CN(C)C)c2ccccc2)C3(C)C)c2sccc2n1
Summary of the method: as §1

[3] = compound: Cc1ncc(-c2ccnc(Nc3ccc(S(C)(=O)=O)cc3)n2)n1C(C)C
Summary of the method: as §1

[4] = compound: Cn1cc(-c2ccc3nnc(C(F)(F)c4ccc5ncccc5c4)n3n2)cn1
Summary of the method: as §1

tipifarnib = compound: Cn1cncc1[C@@](N)(c1ccc(Cl)cc1)c1ccc2c(c1)c(-c1cccc(Cl)c1)cc(=O)n2C [tipifarnib]
Summary of the method: as §1

mubritinib = compound: FC(F)(F)c1ccc(/C=C/c2nc(COc3ccc(CCCCn4ccnn4)cc3)co2)cc1 [mubritinib]
Summary of the method: as §1

crizotinib = compound: C[C@@H](Oc1cc(-c2cnn(C3CCNCC3)c2)cnc1N)c1c(Cl)ccc(F)c1Cl [crizotinib]
Summary of the method: as §1

[5] = compound: C[C@H](C1=CC=C(C=C1)C(=O)NC2=C3C=CNC3=NC=C2)N
Summary of the method: as §1

gandotinib = compound: Cc1cc(Nc2cc(CN3CCOCC3)c3nc(C)c(Cc4ccc(Cl)cc4F)n3n2)n[nH]1 [gandotinib]
Summary of the method: as §1

[6] = compound: Cc1cc(SCc2sc(-c3ccc(C(F)(F)F)cc3)nc2C)ccc1OCC(=O)O
Summary of the method: as §1

doramapimod = compound: Cc1ccc(-n2nc(C(C)(C)C)cc2NC(=O)Nc2ccc(OCCN3CCOCC3)c3ccccc23)cc1 [doramapimod]
Summary of the method: as §1

[7] = compound: Cc1cccc(CC(=O)N2CCc3c2ccc(-c2cn(C)c4ncnc(N)c24)c3F)n1
Summary of the method: as §1

dasatinib = compound: Cc1nc(Nc2ncc(C(=O)Nc3c(C)cccc3Cl)s2)cc(N2CCN(CCO)CC2)n1 [dasatinib]
Summary of the method: as §1

[8] = compound: Cn1cc(-c2ccc3c(c2)CCN3C(=O)Cc2cccc(C(F)(F)F)c2)c2c(N)ncnc21
Summary of the method: as §1

[9] = compound: C[C@@H]1COCCN1C2=NC(=NC(=C2)C3(CC3)S(=O)(=O)C)C4=C5C=CNC5=CC=C4
Summary of the method: as §1

duvelisib = compound: C[C@H](Nc1ncnc2nc[nH]c12)c1cc2cccc(Cl)c2c(=O)n1-c1ccccc1 [duvelisib]
Summary of the method: as §1

tozasertib = compound: Cc1cc(Nc2cc(N3CCN(C)CC3)nc(Sc3ccc(NC(=O)C4CC4)cc3)n2)n[nH]1 [tozasertib]
Summary of the method: as §1

Measured: log2 fold change

SMIM13 (UniProt P0DJ93)
inactive: [1] 0.121 | ispinesib 0.063 | bafetinib -0.128 | nilotinib 0.016 | [2] 0.025 | [3] -0.284 | [4] 0.12 | tipifarnib 0.234 | mubritinib 0.051

SMPD4 isoform 2 (UniProt Q9NXE4)
inactive: crizotinib -0.21 | [5] -0.061 | gandotinib -0.263 | [6] 0.09 | doramapimod 0.027 | bafetinib -0.026 | [7] 0.151 | dasatinib -0.285 | [8] 0.09 | tipifarnib -0.111 | mubritinib 0.108

SORBS3 (UniProt O60504)
inactive: [9] 0.151 | gandotinib 0.072 | bafetinib 0.045 | [7] -0.091 | nilotinib 0.131 | [2] 0.048 | [3] -0.099

SMPDL3A (UniProt Q92484)
inactive: [9] 0.159 | duvelisib -0.153 | tozasertib -0.071 | [6] 0.015 | dasatinib 0.27

SMIM11A (UniProt P58511)
inactive: crizotinib 0.267 | doramapimod 0.034 | bafetinib -0.045 | nilotinib 0.065 | [2] 0.072 | [3] 0.012

SNAPC5 (UniProt O75971)
inactive: crizotinib 0.075 | [9] 0.038 | duvelisib 0.073 | gandotinib 0.013 | tozasertib 0.053 | [6] 0.002 | doramapimod 0.008 | bafetinib 0.173 | [7] -0.073 | nilotinib -0.197 | [2] 0.106 | dasatinib -0.009 | [3] 0.04 | tipifarnib 0.091

SMARCAL1 (UniProt Q9NZC9)
inactive: ispinesib 0.097 | [4] 0.169 | mubritinib -0.257

SNX4 (UniProt O95219)
inactive: [5] 0.192 | gandotinib -0.058 | ispinesib -0.404 | [7] -0.026 | [8] -0.115 | [4] -0.145

SNX27 (UniProt Q96L92)
inactive: crizotinib -0.091 | [9] 0 | [5] 0.434 | duvelisib -0.117 | gandotinib -0.182 | tozasertib 0.033 | [6] 0.293 | doramapimod 0.147 | ispinesib -0.199 | [7] 0.246 | dasatinib -0.117 | [8] -0.081 | [4] -0.081

SP4 (UniProt Q02446)
inactive: crizotinib 0.004 | gandotinib 0.242 | tozasertib -0.069 | doramapimod 0.025 | ispinesib 0.147 | [7] 0.082 | nilotinib 0.119 | [2] 0.053 | [3] -0.123 | [4] -0.216

SMR3B (UniProt P02814)
inactive: bafetinib -0.079 | nilotinib 0.021 | [2] -0.081 | [3] 0.277

SLC9B2 (UniProt Q86UD5)
inactive: [9] -0.016

SNIP1 (UniProt Q8TAD8)
inactive: gandotinib 0.04 | [7] -0.091

SMAD3 (UniProt P84022)
inactive: [5] 0.172 | duvelisib 0.041 | gandotinib 0.07 | tozasertib 0.089 | [6] 0.088 | ispinesib -0.216 | [7] -0.018 | dasatinib -0.115 | [8] -0.121 | [4] -0.095 | tipifarnib 0.031
